Assay [1] has as its target Cyclin-dependent kinase 6 (CDK6), wild type (mouse (endogenous in eWAT and ADSC)) (UniProt Q64261). Description: co-IP; IP-Western from eWAT extracts of WT, K43M and KR (K43M;Runx1-/-) mice; AMPKα, CDK6, CHREBP or p-AMPKα immunoprecipitated and blotted with the indicated antibodies; input 50 μg extract.
For assay [2] the target is unchanged. Description: co-IP; ADSCs of WT and K43M mice (Supplementary Fig. 10c–g); told as similar to the IP-Westerns of eWAT; legend and details not shown.
Assay [3] addresses CDK6 K43M, catalytically inactive kinase (knock-in allele) (mouse (endogenous in eWAT and ADSC)) (UniProt Q64261). The description is as above.

Chains of the proteins cited; added tags and fusions are not shown. Lines headed by an entry give the natural chain unless they say otherwise; changes in a name come on top.
UniProt Q64261: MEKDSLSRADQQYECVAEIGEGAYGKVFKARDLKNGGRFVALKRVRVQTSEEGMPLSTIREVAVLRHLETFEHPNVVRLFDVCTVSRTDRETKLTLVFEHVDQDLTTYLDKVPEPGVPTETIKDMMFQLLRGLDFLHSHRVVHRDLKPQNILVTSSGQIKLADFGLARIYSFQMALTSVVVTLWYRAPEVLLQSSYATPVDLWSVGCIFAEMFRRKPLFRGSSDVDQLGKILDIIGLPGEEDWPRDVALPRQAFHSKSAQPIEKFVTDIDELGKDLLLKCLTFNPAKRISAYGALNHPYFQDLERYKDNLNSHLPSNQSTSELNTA

These are yes or no findings as the source states them, for the method shown. In cells and extracts the contact can be indirect. Some entries that bind do so weakly or less than the wild type.

B1: Carbohydrate-responsive element-binding protein, β isoform (CHREBPβ) (protein, UniProt Q99MZ3-6 1-687)
chain: MREYHKWRIYYKKRLRKSSREGDFLAPKQVEGGWPPPERWCEQLFSSVVPVLLGGSEEEPGGRQLLDLDCFLSDISDTLFTMTQPSPSSLQLPPEDAYVGNADMIQPDLTPLQPSLDDFMEISDFFTNYRPPQTPTSSNYIESPSFGPMADSLFSSGILAPEMPSPASSSSSSGMTPHSGNTRLQARNSCSGPLDPNPFLSSEFLLPEDPKTKIPPAPGPTPLLPFPTPVKVHGLEPCTPSPFPTMAPPPSLLPEESLLSARFPFTSAPPAPGVSTLPAPTTFVPTPQPGPGPVPFSVDHLPHGYLEPVFGPHFTVPQGMQPRCKPSSPSPGGQKASPPTLASATASPTATATARDNNPCLTQLLRAAKPEQALEPPTMPGTLLRPPESPQDTVSEIPRARAFFPPIPAPTPPRPPPGPATLAPPRSLVVPKAERLSPPASSGSERRLSGDLNSIQPSGALSVHLSPPQTVLSRGRVDNNKMENRRITHISAEQKRRFNIKLGFDTLHGLVSTLSAQPSLKVSKATTLQKTAEYILMLQQERAAMQEEAQQLRDEIEELNAAINLCQQQLPATGVPITHQRFDQMRDMFDDYVRTRTLHNWKFWVFSILIRPLFESFNGMVSTASLHSLRQTSLAWLEQYCSLPALRPTVLNSLRQLSTSTSILTDPSLVPEQATRAVTEGTLGRPL
For B1, the binding result in assay [1] and in assay [2] was “binds” throughout.

B2: Phosphorylated CHREBPβ (p-CHREBPβ) (protein, UniProt Q99MZ3-6 1-687)
chain: MREYHKWRIYYKKRLRKSSREGDFLAPKQVEGGWPPPERWCEQLFSSVVPVLLGGSEEEPGGRQLLDLDCFLSDISDTLFTMTQPSPSSLQLPPEDAYVGNADMIQPDLTPLQPSLDDFMEISDFFTNYRPPQTPTSSNYIESPSFGPMADSLFSSGILAPEMPSPASSSSSSGMTPHSGNTRLQARNSCSGPLDPNPFLSSEFLLPEDPKTKIPPAPGPTPLLPFPTPVKVHGLEPCTPSPFPTMAPPPSLLPEESLLSARFPFTSAPPAPGVSTLPAPTTFVPTPQPGPGPVPFSVDHLPHGYLEPVFGPHFTVPQGMQPRCKPSSPSPGGQKASPPTLASATASPTATATARDNNPCLTQLLRAAKPEQALEPPTMPGTLLRPPESPQDTVSEIPRARAFFPPIPAPTPPRPPPGPATLAPPRSLVVPKAERLSPPASSGSERRLSGDLNSIQPSGALSVHLSPPQTVLSRGRVDNNKMENRRITHISAEQKRRFNIKLGFDTLHGLVSTLSAQPSLKVSKATTLQKTAEYILMLQQERAAMQEEAQQLRDEIEELNAAINLCQQQLPATGVPITHQRFDQMRDMFDDYVRTRTLHNWKFWVFSILIRPLFESFNGMVSTASLHSLRQTSLAWLEQYCSLPALRPTVLNSLRQLSTSTSILTDPSLVPEQATRAVTEGTLGRPL
modifications: phosphorylated (p-CHREBPβ); residues not stated
Take B2: the binding result in assay [3] and in assay [2] was “binds” throughout.

B3: Carbohydrate-responsive element-binding protein, α isoform (CHREBPα) (protein, UniProt Q99MZ3-1 1-864)
chain: MARALADLSVNLQVPRVVPSPDSDSDTDLEDPSPRRSAGGLHRSQVIHSGHFMVSSPHSDSLTRRRDQEGPVGLADFGPRSIDPTLTHLFECLSLAYSGKLVSPKWKNFKGLKLLCRDKIRLNNAIWRAWYIQYVQRRKSPVCGFVTPLQGSEADEHRKPEAVILEGNYWKRRIEVVMREYHKWRIYYKKRLRKSSREGDFLAPKQVEGGWPPPERWCEQLFSSVVPVLLGGSEEEPGGRQLLDLDCFLSDISDTLFTMTQPSPSSLQLPPEDAYVGNADMIQPDLTPLQPSLDDFMEISDFFTNYRPPQTPTSSNYIESPSFGPMADSLFSSGILAPEMPSPASSSSSSGMTPHSGNTRLQARNSCSGPLDPNPFLSSEFLLPEDPKTKIPPAPGPTPLLPFPTPVKVHGLEPCTPSPFPTMAPPPSLLPEESLLSARFPFTSAPPAPGVSTLPAPTTFVPTPQPGPGPVPFSVDHLPHGYLEPVFGPHFTVPQGMQPRCKPSSPSPGGQKASPPTLASATASPTATATARDNNPCLTQLLRAAKPEQALEPPTMPGTLLRPPESPQDTVSEIPRARAFFPPIPAPTPPRPPPGPATLAPPRSLVVPKAERLSPPASSGSERRLSGDLNSIQPSGALSVHLSPPQTVLSRGRVDNNKMENRRITHISAEQKRRFNIKLGFDTLHGLVSTLSAQPSLKVSKATTLQKTAEYILMLQQERAAMQEEAQQLRDEIEELNAAINLCQQQLPATGVPITHQRFDQMRDMFDDYVRTRTLHNWKFWVFSILIRPLFESFNGMVSTASLHSLRQTSLAWLEQYCSLPALRPTVLNSLRQLSTSTSILTDPSLVPEQATRAVTEGTLGRPL
Take B3: the binding entry in assay [1] is “no binding”.
